Measurements taken from PubChem BioAssay AID2685 (National Center for Advancing Translational Sciences (NCATS), 2010).
This is one part of the list. Further columns of the screen follow, without active or inactive calls. Compounds called inactive in the main read-out are mostly missing here. Potencies come from curve fits of mixed quality, noted in brackets.

Assay: qHTS Assay for Lipid Storage Modulators in Drosophila S3 Cells;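 on cell number change: cells counted by Cell Tracker Red CMTPX staining in the red channel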
Conditions: BODIPY lipid droplet fluorescence, 18-24 h; for cell number change: measured here: cell count max response, cells fed with added oleic acid
Method in brief: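 Drosophila S3 cells got compounds at several concentrations plus oleic acid (400 uM solution). Laser-scanning cytometry with 488 nm excitation read lipid droplets at 500-530 nm and cells at 575-640 nm. Percent activity was relative to 20 uM Triacsin C.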

[1] = measured here: cell number channel AC50, cells fed with added oleic acid
[2] = measured here: lipid fluorescence (Fed channel) AC50, cells fed with added oleic acid

Structure (SMILES) | AC50 [1] | cell number change | AC50 [2]
Cc1cc(C)c(OCC(=O)OCC(=O)NCCC2=CCCCC2)c(C)c1 | 2.31 µM [rising, partial curve] |  | 
CCOCCn1c(=O)c2c(nc3n2CC(C)CN3Cc2ccccc2)n(C)c1=O (stereo not given) |  | -1.79% | 
COc1ccc(/C=C2\CCC/C(=C\c3ccc(OC)c(OC)c3OC)C2=O)c(OC)c1OC | 6.51 µM [rising, single point] | -2.78% | 6.51 µM [falling, partial curve]
COc1ccccc1/C=C\C=N\n1c(-c2ccc(Cl)cc2Cl)n[nH]c1=S |  |  | 2.06 µM [rising, single point]
Cc1cc(C)n2c(SCC(=O)Nc3c(C)n(C)n(-c4ccccc4)c3=O)nnc2n1 |  | -2.17% | 1.64 µM [rising, partial curve]
CCOC(=O)C(CSCC(=O)c1ccc(Br)cc1)NC(=O)OC(C)(C)C (stereo not given) | 6.51 µM [falling, single point] | -0.264% | 4.61 µM [falling, single point]
COc1ccc(N2CC(C)(C)C2=O)cc1 |  | 10.2% | 
CCc1cc(-c2n[nH]c(=S)n2C(C)c2ccccc2)cs1 (stereo not given) |  | 14.4% | 6.51 µM [falling, single point]
Cn1c(SCC(=O)NNC(=O)c2ccccc2O)nnc1-c1ccccc1 | 18.4 µM [rising, single point] | 58.3% | 6.51 µM [rising, single point]
COc1ccc(C(=O)C(CN2CCCC2)c2ccccc2)cc1 (stereo not given) | 25.9 µM [falling, single point] | -39.3% | 18.4 µM [falling, single point]
COCCN(Cc1ccccc1)C(=O)c1cccc(S(=O)(=O)N(C)c2c(C)n(C)n(-c3ccccc3)c2=O)c1 | 0.0206 µM [falling, full curve, poor fit] |  | 0.103 µM [rising, full curve, poor fit]
COc1ccc(CNC(=O)c2ccc(CN3CCOCC3)cc2)cc1 | 0.13 µM [falling, full curve, poor fit] | 3.53% | 6.51 µM [falling, single point]
COC(=O)c1sccc1NC(=O)Nc1cc(C)cc(C)c1 | 4.61 µM [rising, partial curve, poor fit] | 39% | 29.1 µM [falling, single point]
COc1ccc(N2CCN(C(=O)Cn3cnc4c3c(=O)n(C)c(=O)n4C)CC2)cc1 | 0.146 µM [falling, full curve, poor fit] | -18.5% | 25.9 µM [falling, single point]
O=C(Cn1c(=O)n(CCC(=O)N2CCCCC2)c(=O)c2sccc21)NCc1ccccc1 |  | 22% | 0.103 µM [falling, full curve, poor fit]
O=C(c1cc(-c2ccccc2)nc2ccccc12)N1CCN(c2ccccc2O)CC1 |  | -18.3% | 32.6 µM [falling, single point]
COc1ccc(CNCc2cc3c(C(C)(C)C)nn(-c4ccccc4)c3[nH]c2=O)cc1 | 29.1 µM [falling, single point] | -60.9% | 
COC(=O)c1sccc1NC(=S)N1CCN(c2ccccc2F)CC1 | 0.164 µM [falling, full curve, poor fit] | -15.6% | 2.59 µM [falling, partial curve]
NS(=O)(=O)c1cccc(NC(=O)CN2CCN(Cc3ccc4c(c3)OCO4)CC2)c1 |  |  | 13 µM [rising, partial curve, poor fit]
O=C(Nc1nnc(CCS(=O)(=O)c2ccc3ccccc3c2)s1)c1ccc([N+](=O)[O-])cc1 |  | 3.3% | 23.1 µM [falling, single point]
CCN(C(=O)COC(=O)COc1ccc2c(c1)CCC2)c1c(N)n(Cc2ccccc2)c(=O)[nH]c1=O | 29.1 µM [rising, single point] | 71.1% | 
CC1(C)CC(=O)C(Sc2ccccc2C(=O)O)=C(O)C1 |  |  | 0.731 µM [falling, single point]
O=C(NCCO)c1cccc(S(=O)(=O)N2CCCCC2)c1 |  | 2.69% | 6.51 µM [falling, partial curve, poor fit]
O=C1COc2ccc(C(=O)COC(=O)Cc3ccsc3)cc2N1 | 18.4 µM [falling, single point] | -85% | 
CCc1cc(C(=O)N2CCN(C(=O)c3ccco3)CC2)sc1C |  | -24.5% | 5.8 µM [falling, partial curve, poor fit]
Cc1ccc(C(=O)N/C(=C/c2ccccc2)C(=O)NC(Cc2ccccc2)C(=O)O)cc1 (stereo not given) |  | -9.23% | 11.6 µM [falling, partial curve]
COCCN(C(=O)COC(=O)c1ccc2c(c1)OCCO2)c1c(N)n(Cc2ccccc2)c(=O)[nH]c1=O |  | -19.3% | 
CCN1C(=O)[C@H]2[C@@H](c3ccc(-c4ccc(C(C)=O)cc4)cc3)N3CCCC[C@@]3(C(=O)OC)[C@H]2C1=O |  |  | 6.51 µM [falling, single point]

Structure (SMILES) | AC50 [1] | cell number change | AC50 [2]
COc1ccc(C2C3=C(CCCC3=O)Nc3nc(C(F)(F)F)nn32)cc1OC (stereo not given) | 5.8 µM [falling, full curve] | -38.1% | 
Cc1cc(C)c2nc(N(CCN(C)C)C(=O)c3ccc(S(=O)(=O)N(C)CC4CCCO4)cc3)sc2c1 (stereo not given) | 10.3 µM [falling, partial curve] | -56.5% | 14.6 µM [falling, partial curve]
COc1ccccc1N1CCN(C(=O)CSc2nc3ccccc3c(=O)n2CC2CCCO2)CC1 (stereo not given) |  | 3.94% | 
C=CCn1c(=O)[nH]c2cc(C(=O)N3CCN(c4cccc(Cl)c4)CC3)ccc2c1=O | 20.6 µM [falling, partial curve, poor fit] | -35.5% | 18.4 µM [falling, partial curve, poor fit]
O=C(N/N=C/c1cc2c(cc1[N+](=O)[O-])OCO2)c1cccnc1 |  |  | 0.00411 µM [rising, full curve, poor fit]
Cn1c(=O)cc(OCCCC(=O)Nc2ccccn2)c2ccccc21 |  |  | 1.84 µM [falling, partial curve]
CC1=C(C)/C(=N\OS(=O)(=O)c2ccccc2)C=CC1=O | 3.26 µM [falling, full curve] | -90.4% | 16.4 µM [falling, partial curve]
O=C(CCCn1c(=O)[nH]c2cc(Cl)ccc2c1=O)NC1CCCCCC1 |  | 8.54% | 0.164 µM [falling, full curve, poor fit]
O=C(COC(=O)c1ccc(O)cc1)NCCC1=CCCCC1 | 1.84 µM [rising, partial curve] | -34.3% | 
CCSc1nc(C2CC2)cc(-c2ccco2)c1C#N |  | -29% | 
CN(c1ccccc1)S(=O)(=O)c1cccc(NC(=O)CSc2nncs2)c1 |  | -24.9% | 16.4 µM [falling, single point]
Cc1cc(C)c2nc(SCC(=O)Nc3cc(C)on3)c(C#N)cc2c1 |  | 19% | 29.1 µM [rising, single point]
Cn1c(CNc2ccccc2O)nc2ccccc21 |  | -3.57% | 0.164 µM [falling, single point]
COc1cc(NC(=S)NC(=O)c2c(OC)cccc2OC)ccc1NC(=O)c1cccs1 | 6.51 µM [falling, single point] | -14.2% | 
O=C(O)CNS(=O)(=O)c1cccc(Cl)c1 |  | -8.37% | 5.17 µM [falling, full curve, poor fit]
O=C(NCCCN1CCOCC1)c1ccc(-c2ccc(Cl)cc2)o1 | 25.9 µM [falling, partial curve, poor fit] | -45.1% | 
Cc1onc(-c2ccccc2)c1C(=O)c1c[nH]c(C(=O)NCc2ccncc2)c1 | 29.1 µM [falling, single point] | -52.5% | 
O=C(COC(=O)C1CC(=O)N(c2ccccc2)C1)c1ccccc1 (stereo not given) |  | -21.7% | 3.66 µM [falling, full curve, poor fit]
CCN(CC)C(=O)CN(c1ccc(Cl)cc1)S(=O)(=O)c1ccccc1 |  |  | 29.1 µM [rising, single point]
Cc1ccc(S(=O)(=O)N(C)c2c(C)ccc(S(=O)(=O)N3CCN(C=O)CC3)c2C)cc1 | 0.116 µM [rising, partial curve, poor fit] | 177% | 
O=C(COC(=O)c1ccccc1NC(=O)c1ccco1)NCCC1=CCCCC1 |  | -4.37% | 2.06 µM [rising, full curve]
COc1ccc(N2CCN(C(=O)c3ccc(Cn4nc(C)c([N+](=O)[O-])c4C)o3)CC2)cc1 | 20.6 µM [falling, single point] | -32% | 11.6 µM [falling, single point]
Cc1[nH]nc2c1C(C(C)C)C(C#N)=C(N)O2 (stereo not given) | 29.1 µM [rising, single point] | 38.6% | 29.1 µM [rising, single point]
CCC(=O)NC(c1cc(Cl)c2ccccc2c1O)C1CC1 (stereo not given) |  | -16.6% | 0.146 µM [rising, single point]
Cc1oc(-c2cccc(F)c2)nc1CN1CCCCC1CCn1cccn1 (stereo not given) |  | 16.6% | 0.00461 µM [rising, full curve, poor fit]
COc1ccc(NC(=O)C(c2ccccn2)N(C(C)=O)c2ccc(C)cc2)cc1 (stereo not given) |  | 19.9% | 14.6 µM [rising, partial curve, poor fit]
Cc1ccccc1OCc1nnc(SCC(=O)O)n1Cc1ccccc1 |  | 27.5% | 0.00461 µM [rising, full curve, poor fit]

17 structures already listed, ordered by formula weight, rising:
Structure (SMILES) | AC50 [1] | cell number change | AC50 [2]
CC1=C(C)/C(=N\OS(=O)(=O)c2ccccc2)C=CC1=O | 3.26 µM [falling, full curve] | -90.4% | 16.4 µM [falling, partial curve]
O=C(COC(=O)c1ccc(O)cc1)NCCC1=CCCCC1 | 1.84 µM [rising, partial curve] | -34.3% | 
CCC(=O)NC(c1cc(Cl)c2ccccc2c1O)C1CC1 (stereo not given) |  | -16.6% | 0.146 µM [rising, single point]
O=C(N/N=C/c1cc2c(cc1[N+](=O)[O-])OCO2)c1cccnc1 |  |  | 0.00411 µM [rising, full curve, poor fit]
O=C(COC(=O)C1CC(=O)N(c2ccccc2)C1)c1ccccc1 (stereo not given) |  | -21.7% | 3.66 µM [falling, full curve, poor fit]
Cn1c(=O)cc(OCCCC(=O)Nc2ccccn2)c2ccccc21 |  |  | 1.84 µM [falling, partial curve]
O=C(NCCCN1CCOCC1)c1ccc(-c2ccc(Cl)cc2)o1 | 25.9 µM [falling, partial curve, poor fit] | -45.1% | 
Cc1cc(C)c2nc(SCC(=O)Nc3cc(C)on3)c(C#N)cc2c1 |  | 19% | 29.1 µM [rising, single point]
Cc1ccccc1OCc1nnc(SCC(=O)O)n1Cc1ccccc1 |  | 27.5% | 0.00461 µM [rising, full curve, poor fit]
O=C(CCCn1c(=O)[nH]c2cc(Cl)ccc2c1=O)NC1CCCCCC1 |  | 8.54% | 0.164 µM [falling, full curve, poor fit]
Cc1onc(-c2ccccc2)c1C(=O)c1c[nH]c(C(=O)NCc2ccncc2)c1 | 29.1 µM [falling, single point] | -52.5% | 
COc1ccc(NC(=O)C(c2ccccn2)N(C(C)=O)c2ccc(C)cc2)cc1 (stereo not given) |  | 19.9% | 14.6 µM [rising, partial curve, poor fit]
O=C(COC(=O)c1ccccc1NC(=O)c1ccco1)NCCC1=CCCCC1 |  | -4.37% | 2.06 µM [rising, full curve]
COc1ccc(N2CCN(C(=O)c3ccc(Cn4nc(C)c([N+](=O)[O-])c4C)o3)CC2)cc1 | 20.6 µM [falling, single point] | -32% | 11.6 µM [falling, single point]
Cc1ccc(S(=O)(=O)N(C)c2c(C)ccc(S(=O)(=O)N3CCN(C=O)CC3)c2C)cc1 | 0.116 µM [rising, partial curve, poor fit] | 177% | 
COc1ccccc1N1CCN(C(=O)CSc2nc3ccccc3c(=O)n2CC2CCCO2)CC1 (stereo not given) |  | 3.94% | 
Cc1cc(C)c2nc(N(CCN(C)C)C(=O)c3ccc(S(=O)(=O)N(C)CC4CCCO4)cc3)sc2c1 (stereo not given) | 10.3 µM [falling, partial curve] | -56.5% | 14.6 µM [falling, partial curve]
